Among the data in US20140056890A1 (ONCEMED PHARMACEUTICALS, published 2014) are binding values, retold here.

These are yes or no findings as the source states them, for the method shown. Binding seen in cells or lysates may run through a third protein. A yes stands for co-enrichment or nearness to the bait. Other partners may have been found.

This experiment addresses FLAG-tagged full-length JAM2 (human). The experiment in a line: anti-FLAG co-IP from HEK-293T transfected with FLAG-tagged full-length JAM2, mass spectrometry.

B1: endogenous JAM3 (receptor)
chain: VNLKSSNRTPVVQEFESVELSCIITDSQTSDPRIEWKKIQDEQTTYVFFDNKIQGDLAGRAEILGKTSLKIWNVTRRDSALYRCEVVARNDRKEIDEIVIELTVQVKPVTPVCRVPKAVPVGKMATLHCQESEGHPRPHYSWYRNDVPLPTDSRANPRFRNSSFHLNSETGTLVFTAVHKDDSGQYYCIASNDAGSARCEEQEMEVYDLNIGGIIGGVLVVLAVLALITLGICCAYRRGYFINNKQDGESYKNPGKPDGVNYIRTDEEGDFRHKSSFVI
In the case of B1, the binding result is given as “binds”.
